From article PMC10411474
No constants are given. Whether binding was seen depends on the method and setting. In cells and extracts the contact can be indirect. Some entries that bind do so weakly or less than the wild type.

By UniProt entry, the sequences of proteins in these tests, tags left out.
UniProt Q9UPY3: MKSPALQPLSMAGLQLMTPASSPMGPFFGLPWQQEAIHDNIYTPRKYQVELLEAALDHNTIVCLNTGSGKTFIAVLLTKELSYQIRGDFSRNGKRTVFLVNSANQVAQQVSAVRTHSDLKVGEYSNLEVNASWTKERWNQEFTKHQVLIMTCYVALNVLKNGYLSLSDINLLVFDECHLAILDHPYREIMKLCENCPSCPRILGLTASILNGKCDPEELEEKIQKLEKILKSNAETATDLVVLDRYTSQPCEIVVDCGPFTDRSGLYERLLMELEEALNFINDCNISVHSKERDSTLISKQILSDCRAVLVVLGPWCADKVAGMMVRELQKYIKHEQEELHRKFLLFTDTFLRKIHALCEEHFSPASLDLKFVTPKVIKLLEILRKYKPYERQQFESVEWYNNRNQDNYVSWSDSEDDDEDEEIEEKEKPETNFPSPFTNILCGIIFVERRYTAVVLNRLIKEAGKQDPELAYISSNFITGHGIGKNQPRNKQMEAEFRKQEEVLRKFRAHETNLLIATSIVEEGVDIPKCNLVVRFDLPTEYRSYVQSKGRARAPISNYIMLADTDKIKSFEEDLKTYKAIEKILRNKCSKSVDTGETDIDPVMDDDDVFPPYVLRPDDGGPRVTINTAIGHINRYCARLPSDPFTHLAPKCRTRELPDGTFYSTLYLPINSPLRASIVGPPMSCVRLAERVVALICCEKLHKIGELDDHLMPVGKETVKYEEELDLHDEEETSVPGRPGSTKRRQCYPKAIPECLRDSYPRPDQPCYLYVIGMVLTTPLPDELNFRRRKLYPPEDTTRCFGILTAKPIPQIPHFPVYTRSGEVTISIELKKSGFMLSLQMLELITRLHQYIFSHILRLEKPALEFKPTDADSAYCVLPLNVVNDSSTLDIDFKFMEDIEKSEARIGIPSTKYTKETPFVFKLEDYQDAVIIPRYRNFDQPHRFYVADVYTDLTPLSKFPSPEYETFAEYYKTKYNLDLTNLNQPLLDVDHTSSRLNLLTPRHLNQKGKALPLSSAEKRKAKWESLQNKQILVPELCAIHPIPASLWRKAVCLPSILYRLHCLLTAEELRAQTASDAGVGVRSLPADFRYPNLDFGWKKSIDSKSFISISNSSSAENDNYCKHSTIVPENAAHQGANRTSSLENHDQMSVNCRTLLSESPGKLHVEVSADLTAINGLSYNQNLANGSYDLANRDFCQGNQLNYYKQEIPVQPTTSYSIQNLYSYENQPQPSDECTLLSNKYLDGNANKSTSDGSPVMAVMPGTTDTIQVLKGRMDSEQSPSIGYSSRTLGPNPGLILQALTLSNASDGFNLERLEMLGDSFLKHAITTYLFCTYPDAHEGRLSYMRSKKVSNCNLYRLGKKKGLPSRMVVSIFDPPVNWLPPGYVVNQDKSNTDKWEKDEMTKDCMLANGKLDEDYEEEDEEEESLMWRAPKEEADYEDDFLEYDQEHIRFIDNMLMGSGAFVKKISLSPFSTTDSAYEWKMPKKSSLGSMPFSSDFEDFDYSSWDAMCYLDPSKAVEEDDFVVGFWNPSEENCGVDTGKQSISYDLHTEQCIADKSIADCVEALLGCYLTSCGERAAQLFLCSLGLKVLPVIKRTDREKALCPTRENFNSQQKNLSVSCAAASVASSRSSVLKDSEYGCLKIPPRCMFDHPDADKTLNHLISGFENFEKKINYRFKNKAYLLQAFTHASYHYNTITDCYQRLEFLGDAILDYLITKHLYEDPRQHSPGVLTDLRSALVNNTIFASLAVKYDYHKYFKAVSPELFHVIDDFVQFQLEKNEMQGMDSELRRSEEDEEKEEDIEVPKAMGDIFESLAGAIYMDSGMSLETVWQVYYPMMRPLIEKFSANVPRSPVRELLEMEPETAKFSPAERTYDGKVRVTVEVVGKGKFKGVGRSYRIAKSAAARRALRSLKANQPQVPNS

Target: T1, KH-type splicing regulatory protein (KSRP) (human (endogenous in CRC cells)) (UniProt Q92945)
T1 sequence: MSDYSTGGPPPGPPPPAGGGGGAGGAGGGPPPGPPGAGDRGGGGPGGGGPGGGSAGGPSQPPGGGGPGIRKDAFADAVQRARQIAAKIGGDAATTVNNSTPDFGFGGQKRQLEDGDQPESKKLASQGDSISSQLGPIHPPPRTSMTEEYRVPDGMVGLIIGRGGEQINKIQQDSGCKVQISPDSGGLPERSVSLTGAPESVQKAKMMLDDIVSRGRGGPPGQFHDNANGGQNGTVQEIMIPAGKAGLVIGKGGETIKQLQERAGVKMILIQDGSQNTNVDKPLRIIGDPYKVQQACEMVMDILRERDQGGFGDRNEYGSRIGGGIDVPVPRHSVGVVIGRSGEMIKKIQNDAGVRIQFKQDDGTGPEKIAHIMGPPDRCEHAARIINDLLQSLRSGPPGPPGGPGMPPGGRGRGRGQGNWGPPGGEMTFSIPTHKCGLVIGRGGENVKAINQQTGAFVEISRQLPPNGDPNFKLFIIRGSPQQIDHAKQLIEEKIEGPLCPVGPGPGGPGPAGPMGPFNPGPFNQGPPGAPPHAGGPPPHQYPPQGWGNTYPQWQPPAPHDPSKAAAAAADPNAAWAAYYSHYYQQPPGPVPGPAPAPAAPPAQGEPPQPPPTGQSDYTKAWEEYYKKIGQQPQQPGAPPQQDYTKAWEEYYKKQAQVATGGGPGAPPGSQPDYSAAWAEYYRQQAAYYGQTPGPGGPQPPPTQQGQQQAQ
Assay: co-IP; endogenous Co-IP in CRC cells; KSRP immunoprecipitates incubated with or without RNase A (0.1 mg/mL) at 37°C for 20 min; Drosha and Dicer detected by blot

Molecule	binding
Dicer (from UniProt Q9UPY3 1-1922) (enzyme)	binds
Drosha (enzyme, UniProt Q9NRR4 1-1374) MMQGNTCHRMSFHPGRGCPRGRGGHGARPSAPSFRPQNLRLLHPQQPPVQYQYEPPSAPSTTFSNSPAPNFLPPRPDFVPFPPPMPPSAQGPLPPCPIRPPFPNHQMRHPFPVPPCFPPMPPPMPCPNNPPVPGAPPGQGTFPFMMPPPSMPHPPPPPVMPQQVNYQYPPGYSHHNFPPPSFNSFQNNPSSFLPSANNSSSPHFRHLPPYPLPKAPSERRSPERLKHYDDHRHRDHSHGRGERHRSLDRRERGRSPDRRRQDSRYRSDYDRGRTPSRHRSYERSRERERERHRHRDNRRSPSLERSYKKEYKRSGRSYGLSVVPEPAGCTPELPGEIIKNTDSWAPPLEIVNHRSPSREKKRARWEEEKDRWSDNQSSGKDKNYTSIKEKEPEETMPDKNEEEEEELLKPVWIRCTHSENYYSSDPMDQVGDSTVVGTSRLRDLYDKFEEELGSRQEKAKAARPPWEPPKTKLDEDLESSSESECESDEDSTCSSSSDSEVFDVIAEIKRKKAHPDRLHDELWYNDPGQMNDGPLCKCSAKARRTGIRHSIYPGEEAIKPCRPMTNNAGRLFHYRITVSPPTNFLTDRPTVIEYDDHEYIFEGFSMFAHAPLTNIPLCKVIRFNIDYTIHFIEEMMPENFCVKGLELFSLFLFRDILELYDWNLKGPLFEDSPPCCPRFHFMPRFVRFLPDGGKEVLSMHQILLYLLRCSKALVPEEEIANMLQWEELEWQKYAEECKGMIVTNPGTKPSSVRIDQLDREQFNPDVITFPIIVHFGIRPAQLSYAGDPQYQKLWKSYVKLRHLLANSPKVKQTDKQKLAQREEALQKIRQKNTMRREVTVELSSQGFWKTGIRSDVCQHAMMLPVLTHHIRYHQCLMHLDKLIGYTFQDRCLLQLAMTHPSHHLNFGMNPDHARNSLSNCGIRQPKYGDRKVHHMHMRKKGINTLINIMSRLGQDDPTPSRINHNERLEFLGDAVVEFLTSVHLYYLFPSLEEGGLATYRTAIVQNQHLAMLAKKLELDRFMLYAHGPDLCRESDLRHAMANCFEALIGAVYLEGSLEEAKQLFGRLLFNDPDLREVWLNYPLHPLQLQEPNTDRQLIETSPVLQKLTEFEEAIGVIFTHVRLLARAFTLRTVGFNHLTLGHNQRMEFLGDSIMQLVATEYLFIHFPDHHEGHLTLLRSSLVNNRTQAKVAEELGMQEYAITNDKTKRPVALRTKTLADLLESFIAALYIDKDLEYVHTFMNVCFFPRLKEFILNQDWNDPKSQLQQCCLTLRTEGKEPDIPLYKTLQTVGPSHARTYTVAVYFKGERIGCGKGPSIQQAEMGAAMDALEKYNFPQMAHQKRFIERKYRQELKEMRWEREHQEREPDETEDIKK	binds
